# In PubChem BioAssay AID540276 (National Center for Advancing Translational Sciences (NCATS), 2011):
# In all, about 300,000 compounds went through this assay and about 5,400 (1.8%) were called active. The shares of active, inactive and inconclusive entries below differ from those in the screen. Calls follow the shape of the full dose curve; tested in HEK293 cells. Potencies beside an inconclusive call are fits to weak or partial responses and may not hold up.
# Assay: qHTS for inhibitors of binding or entry into cells for Marburg Virus
# Conditions: Marburg virus pseudotyped entry inhibition, cell reporter; activity change, negative = inhibition: at 37.8 µM (top of the series) unless noted
# % is scaled to controls: 0 for no effect and ±100 for the full control effect; potency is read from the fitted curve at half-maximal effect.
Structure (SMILES),Potency,"activity change, negative = inhibition"
Cc1ccc(C(C(=O)NCC2CCCO2)N(C(=O)c2snc(C(N)=O)c2N)c2ccc(C(C)C)cc2)o1 (stereo not drawn),"inconclusive: 18.3 µM [inhibitor, single point]",
Cc1cc(Br)ccc1NC(=O)CN(C)C(=O)CCSc1ccc(F)cc1,,inactive: -0.524%
Cc1cc2c(NCCc3ccccc3)ncnc2s1,active: 7.08 µM,
CCOC(=O)c1c(NC2OC(=O)c3c2ccc(OC)c3OC)sc(C(=O)OC(C)(C)C)c1C (stereo not drawn),,inactive: 13.5%
Cc1[nH]c2ccccc2c1C(=O)C(=O)NCc1ccco1,,inactive: -6.22%
COc1ccc(Cn2c(=O)[nH]c3cc(C(=O)N4CCN(c5ccccc5OC)CC4)ccc3c2=O)cc1,"inconclusive: 28.2 µM [inhibitor, partial curve, poor fit]",
Cc1ccc(C2NC(c3ccc(C)cc3)C([N+](=O)[O-])C(C)(C)C2[N+](=O)[O-])cc1 (stereo not drawn),"inconclusive: 35.5 µM [inhibitor, partial curve, poor fit]",
COc1ccc(-c2cc3nc(C4CCN(C(=O)OC(C)(C)C)CC4)c(C(=O)O)cn3n2)cc1,,inactive: 4.03%
CCOC(=O)C1=CNS(=O)(=O)NC1c1ccc(C)cc1 (stereo not drawn),,inactive: -5.61%
O=C(Nc1ccc2nc(SCC(=O)N3CCCC3)sc2c1)c1cccc(Cl)c1,"inconclusive: 35.5 µM [inhibitor, single point]",
COc1ccc(NC(=O)Cn2c(=O)n(-c3ccc(C)cc3)c(=O)c3c2cnn3C)cc1,"inconclusive: 8.91 µM [inhibitor, partial curve, poor fit]",
COc1ccc(C(C)=O)cc1COC(=O)c1cccc(N(C)C)c1,"inconclusive: 2.51 µM [inhibitor, partial curve]",
CCCCC(=O)NC(=S)Nc1ccccc1N1CCCCC1,"inconclusive: 23.1 µM [inhibitor, single point]",
CC1=Nc2cc(C(=O)NCCc3ccccc3)ccc2Sc2c(C)ccc(C)c21,"inconclusive: 7.94 µM [inhibitor, partial curve, poor fit]",
C=C1C(=O)O[C@H]2[C@H]1[C@H](OC(=O)/C(C)=C\C)C[C@]1(CO1)[C@@H]1[C@H](OC(C)=O)C=C(C)[C@]21O,"inconclusive: 14.1 µM [inhibitor, single point]",
CCOc1ccc(C(=O)Nn2cnnc2)cc1,,inactive: 0.947%
O=C(Nc1ccc(F)cc1F)c1csc(-c2ccncc2)n1,"inconclusive: 0.631 µM [inhibitor, full curve, poor fit]",
CCNC(=O)COc1ccc(/C=C2\COc3ccccc3C2=O)cc1OC,"inconclusive: 25.9 µM [inhibitor, single point]",
O=C(Cn1c(=O)c2cccn2c2ccc(F)cc21)NCCCN1CCN(c2ccccc2F)CC1,"inconclusive: 4.47 µM [inhibitor, partial curve, poor fit]",
COCCNC(=O)CN(CC1CCCO1)C(=O)CCC(=O)Nc1ccccn1 (stereo not drawn),"inconclusive: 5.62 µM [activator, single point]",
CC(=O)Oc1ccc(N2C(=O)CC(N3CCOCC3)C2=O)cc1 (stereo not drawn),,inactive: 0%
O=C(c1cccc(S(=O)(=O)N2CCN(c3ccc(F)cc3)CC2)c1)N1CCCC(C(F)(F)F)C1 (stereo not drawn),active: 7.94 µM,
C#CCNC(=O)[C@H]1C=C(OC)C(=O)C[C@H]2c3ccccc3C[C@]12C,,inactive: 7.97% [at 14.2 µM]

# In the list so far, these contain a furan ring, fused or not.
Structure (SMILES),Potency,"activity change, negative = inhibition"
Cc1ccc(C(C(=O)NCC2CCCO2)N(C(=O)c2snc(C(N)=O)c2N)c2ccc(C(C)C)cc2)o1 (stereo not drawn),"inconclusive: 18.3 µM [inhibitor, single point]",
Cc1[nH]c2ccccc2c1C(=O)C(=O)NCc1ccco1,,inactive: -6.22%

# Following part.

Structure (SMILES),Potency,"activity change, negative = inhibition"
CCOc1ccc(-n2nc3c(=O)n(CCN4CCCCC4)nc(C)c3c2C)cc1,"inconclusive: 14.1 µM [inhibitor, single point]",
COc1ccccc1NC(=S)N(CCc1c(C)[nH]c2ccccc12)Cc1cccs1,,inactive: 0.342%
O=C(NNc1ncc(C(F)(F)F)cc1Cl)c1ccc(Cl)c(Cl)c1,,inactive: 21.2% [at 46.1 µM]
CCCCNCCCOc1cccc(Cl)c1Cl,active: 14.6 µM,
O=C(NCc1ccccc1)c1nc(S(=O)(=O)Cc2ccccc2)ncc1Cl,inactive,
Cc1c(C(=O)Nc2ccc3c(c2)OCCO3)oc2ccc(Br)cc12,,inactive: 27%
COc1ccc(C(CCNCc2ccc(F)cc2)c2ccc(F)cc2)cc1 (stereo not drawn),active: 14.6 µM,
COC(=O)c1c(C)oc2ccc(N(C(=O)c3ccncc3)S(=O)(=O)c3c(C)cc(C)cc3C)cc12,"inconclusive: 0.794 µM [inhibitor, partial curve, poor fit]",
COc1cccc(CC(=O)Nc2nc(-c3ccc(OC)c(OC)c3)cs2)c1,"inconclusive: 20 µM [inhibitor, single point]",
CN1CCN(CCC(=O)Nc2ccccc2)CC1,"inconclusive: 15.8 µM [activator, single point]",
O=C(COC(=O)c1ccc([N+](=O)[O-])cc1)Nc1cccnc1Cl,"inconclusive: 11.2 µM [activator, single point]",
CC(=O)Nc1ccc(NC(=O)c2c([N+](=O)[O-])c(C(C)(C)C)nn2C)cc1,"inconclusive: 4.47 µM [activator, single point]",
N/C(=N\OC(=O)c1ccc([N+](=O)[O-])cc1)c1ccccn1,"inconclusive: 29.1 µM [inhibitor, single point]",
O=c1oc2ccccc2c(Nc2ccc3ccccc3c2)c1[N+](=O)[O-],,inactive: -15.2%
Cc1ccc(C(=O)NC2=NCCS2)cc1,,inactive: -1.08%
CCCC(=O)C1=C(O)C(C(=O)OC)C(C)(C)CC1=NCc1ccccc1 (stereo not drawn),,inactive: -1.79%
CN(C)CCNC(=O)c1cc2sc3ccccc3c2s1,"inconclusive: 8.91 µM [inhibitor, partial curve, poor fit]",
O=C(c1sccc1Br)N1CCN(Cc2ccc3c(c2)OCO3)CC1,,inactive: -18.5% [at 46.1 µM]
COc1cc(OC)c2c(c1)OC1Cc3cc(OC)c(OC)cc3C2O1 (stereo not drawn),"inconclusive: 0.0133 µM [inhibitor, full curve, poor fit]",
CCOc1ccc(N2C(=O)C(=O)/C(=C(/O)c3ccccc3)C2c2ccccc2[N+](=O)[O-])cc1 (stereo not drawn),"inconclusive: 11.2 µM [inhibitor, single point]",
O=C1Nc2ccccc2/C1=C/c1cnc[nH]1,"inconclusive: 0.231 µM [inhibitor, partial curve]",
COc1ccc(OC)c(N(CC(=O)NCCSCc2ccco2)S(=O)(=O)c2ccc(OC)c(OC)c2)c1,,inactive: 15.2%
Cc1ccc(NC(=O)Cn2nc(C)n3cccc3c2=O)c(C)c1,"inconclusive: 28.2 µM [activator, single point]",

Structure (SMILES),Potency,"activity change, negative = inhibition"
CC1CCCCN1C(=O)c1cc(Cl)ccc1[N+](=O)[O-] (stereo not drawn),"inconclusive: 2.06 µM [inhibitor, single point]",
c1ccc(Cn2nnc3c(N4CCN(Cc5ccc6c(c5)OCO6)CC4)ncnc32)cc1,"inconclusive: 10.3 µM [inhibitor, partial curve, poor fit]",
CCCc1noc(-c2ccc(-c3ccccc3)cc2)n1,"inconclusive: 35.5 µM [inhibitor, single point]",
COc1ccc(-c2noc(-c3ccccc3C(=O)Nc3cccnc3)n2)cc1,"inconclusive: 14.1 µM [inhibitor, single point]",
Cc1ccccc1C(=O)Nc1c(C)nc(Nc2ccccc2)nc1Nc1ccccc1,"inconclusive: 22.4 µM [inhibitor, single point]",
CCOCCCNC(=O)C(c1ccc(OC)cc1)N(Cc1ccc2c(c1)OCO2)C(=O)c1ccccc1O (stereo not drawn),"inconclusive: 11.2 µM [inhibitor, partial curve, poor fit]",
CCCCCC(=O)Oc1cccc(N2C(=O)C3CCCCC3C2=O)c1 (stereo not drawn),"inconclusive: 35.5 µM [activator, single point]",
O=C(N/N=C/C=N/NC(=O)c1ccco1)c1ccco1,,inactive: 1.59% [at 46.1 µM]
C[n+]1ccccc1/C=C/c1ccc(C#N)cc1,"inconclusive: 35.5 µM [activator, single point]",
CC1Cc2cc(S(=O)(=O)N3CCN(c4ccccc4F)CC3)ccc2N1C(=O)C1CC1 (stereo not drawn),"inconclusive: 8.91 µM [inhibitor, single point]",
CS(=O)(=O)c1ncc(Cl)c(C(=O)Nc2ccc(OC(F)F)cc2)n1,"inconclusive: 25.1 µM [inhibitor, partial curve, poor fit]",
COCc1cc(=O)[nH]c(=S)[nH]1,,inactive: 10.3%
CCOc1ccccc1N1CC(c2nc3ccccc3n2Cc2c(C)cc(C)cc2C)CC1=O (stereo not drawn),"inconclusive: 25.1 µM [inhibitor, single point]",
CCCC(=O)NC1=C(N2CC2)C(=O)C(NC(=O)CCC)=C(N2CC2)C1=O,"inconclusive: 6.31 µM [inhibitor, partial curve, poor fit]",
COc1ccc(NC(=O)c2ccc3c(SCC(=O)O)c4c(nc3c2)CCC4)c(OC)c1,,inactive: 19.8% [at 46.1 µM]
Cc1sc2ncn(CC(=O)N3CCN(c4cccc(Cl)c4)CC3)c(=O)c2c1S(=O)(=O)N1CCN(c2ncccn2)CC1,"inconclusive: 3.16 µM [inhibitor, single point]",
Cc1ccc(S(=O)(=O)Nc2ccncc2)c(C)c1,,inactive: 9.29%
COc1ccc(C(C(=O)NCc2ccccc2)N(Cc2ccco2)C(=O)c2snc(C(N)=O)c2N)cc1 (stereo not drawn),"inconclusive: 11.2 µM [inhibitor, single point]",
O=C(NC1CCN(Cc2ccc(F)cc2)CC1)c1ccccc1,"inconclusive: 1.12 µM [inhibitor, partial curve, poor fit]",
O=C(Nc1nccs1)c1ccc2c(=O)n3c(nc2c1)CCCCC3,"inconclusive: 12.6 µM [inhibitor, single point]",
COc1ccc(OC)c(CCNC(=O)CN2C(=O)COc3ccc(S(=O)(=O)N4CCOCC4)cc32)c1,"inconclusive: 3.98 µM [activator, single point]",
CN1C(C(=O)c2ccccc2)=C(N)c2ccccc2S1(=O)=O,,inactive: -7.32% [at 46.1 µM]
